Assay results as given in publication PMC4205886.
Results are given in words; binding and its absence hold for the method and conditions named. In cells and extracts the contact can be indirect.

Biological target: p53, endogenous (human (endogenous in HCT116)) (UniProt P04637)
Assay: co-IP; endogenous proteins in HCT116 p53+/+ cell lysates; immunoprecipitation with control IgG, anti-p53 or anti-USP7 antibody and protein A/G agarose, blots for the partners; lysis buffer 50 mM Tris-HCl pH 7.4, 150 mM NaCl, 1 mM EDTA, 1% Triton X-100, 4 °C; cells with or without IR (10 Gy), MG132, ectopic ABRO1, siABRO1 or siUSP7

Substance: NBA1, endogenous (from UniProt Q9NWV8 1-329)
- binding: no binding

Substance: BRCC36, endogenous (from UniProt P46736 1-316) (enzyme)
- binding: no binding
